Experimental data reported in PubChem BioAssay AID1347423 (Functional Genomics Laboratory (NCATS/FGL), 2020).
Hit rate of the full screen: of about 52,000 sequences, about 210 (0.4%) were called active.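 Rule for the calls: active = gene whose silencing raises cell survival under the drug, median off-target-corrected z-score across its silencing RNAs 2 or more; inactive = the rest.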 This is one part of the list.

Experiment: Resistance to Poly (ADP-Ribose) Polymerase inhibitor: Gene Identification via Genome-wide siRNA Screen
Conditions: mouse BRCA2 R2336H ES cells, olaparib, CellTiter-Glo viability; hits give high values
How it was run: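 Genome-wide siRNA screen (3 siRNAs/gene, 20 nM) in mouse ES cells carrying hypomorphic BRCA2 R2336H; olaparib 500 nM added 48 h post-transfection, CellTiter-Glo viability 72 h later. Normalized to plate-median negative control; MAD z-scores, gene median, seed-adjusted.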

Sequence	z-score
GGUAUCAUAUGAUAAAGCATT against Npy5r	inactive: -0.14
GGGACAAUACCAAUUUCUCTT against Car15	inactive: -0.39
GGAUAAUUCAGACAACAAUTT against Fus	active: 3.47
CCAGUUGUCUAGACCUGCATT against Ptbp1	inactive: -0.866
CGAAUACUGGACCAUGAUUTT against S100a16	inactive: 1.62
CCUUCAUCCAAGGACGAUGTT against Olfr781	inactive: -0.172
GGGAAGAUCUUCAGGAAAATT against Cbr3	inactive: 0.342
GGAGAUAUCACACAAAUCCTT against Gabrg1	inactive: 0.479
UGCAAAGGGAAUUGUGCUGTT against Rps23	inactive: -2.72
GGAAGACUGUUUUGAGUACTT against AA881470	inactive: 0.466
GGAUCACGCCUUUUGUCAUTT against Lgtn	inactive: 0.529
GGUAGUAGUAAGCCAUAAATT against Exoc8	inactive: -0.285
GGACACAGAUCUGAUGACCTT against E130310K16Rik	inactive: 0.075
GGAAGUUUCAGUCAAGAAGTT against 2600005C20Rik	inactive: -0.215
GCCGGAUGCAGGUUAUUAUTT against Wdr33	inactive: 0.245
CCAGGAUUUUCUUACACGGTT against Cyct	inactive: -0.0282
CGGACACAUGAUUGUCUUCTT against Npas1	inactive: 0.319
GCAACAGUGCUUUAGAUUCTT against Gpr141	inactive: -0.201
CCAACUGUAGAUGUAUAUATT against Pmp22	inactive: 0.0495
GGUGUCACCUUGUUACAACTT against Arrdc4	inactive: -0.176
CGAUAUGAAGCGAAAUAUCTT against Pmpca	inactive: -2.47
GGUCCAAGACAGCAACAUGTT against C330001K17Rik	inactive: 0.762
GGAAGACUUGAAUUCUCUGTT against Tex101	inactive: -0.247
GCACUUGUGACUAUAAAGUTT against B230218O03	inactive: 1.61
GGACCGCCGUGUAAUGAUCTT against Myst4	inactive: -0.577
GCAACCUCUUCAGCUUACATT against Fjx1	inactive: -0.328
GGAUUCAAAGUACCAAGUGTT against 4930463G05Rik	inactive: -0.677

Looked up one by one from the entries so far (three):
Sequence	z-score
GGAAGACUGUUUUGAGUACTT against AA881470	inactive: 0.466
CGAUAUGAAGCGAAAUAUCTT against Pmpca	inactive: -2.47
CGAAUACUGGACCAUGAUUTT against S100a16	inactive: 1.62

(listing goes on)

Sequence	z-score
GGAAAUCAGUGCCAACAACTT against Accn5	inactive: -0.987
GAUACCAAGCUAAAAGAUCTT against Ear10	inactive: 0.0287
GGCAAAGCAACAAUAUCUATT against Cct7	inactive: -1.17
GGACAAUGUGGUGCUGUCCTT against Slc34a3	inactive: -0.874
GGUGCAUUAUCUUGGUUCGTT against Hmga2	inactive: -1.03
CCCAAAAUUAUGGAAGCCATT against Abpd	inactive: -0.0901
GGCUUCAUUCUUGUCCUCCTT against Pap	inactive: 0.472
GGAAUCUAUAAAGGAGACCTT against 1110032D12Rik	inactive: -0.271
GGCAUAUCAGACAACAAGATT against Tcte1	inactive: 0.0932
GGAGCUUAGUUACCCACAUTT against Drg2	inactive: -0.589
GGUUUCUGUCCAGAUAAAATT against 0610042I15Rik	inactive: 0.185
GGGAAGGAUCACGAGGUUGTT against 1810033A06Rik	inactive: -2.51
GGUAUUUGUGCCAAUUGCCTT against Ccr6	inactive: 0.0101
GGAUCAGUAAAGCAAAAAUTT against Lsamp	inactive: 2.52
GGCGAAUGAAGGUUUCUGGTT against Pex11b	inactive: 0.846
CGUGAAGGACAUGUCUAAATT against 5730470L24Rik	inactive: 0.471
GGGAGAGACUAACUUGUUUTT against Hpvc2	inactive: 0.845
CCGAAUUCCAACCUAGAGCTT against 2610311I19Rik	inactive: -1.1
GGUUUGAGAAAUUGGACAUTT against Pou6f1	inactive: -0.732
GGCUUUGAUCAGCAUGAGCTT against Pak4	inactive: -1.03
GGAGCAGCGGGUUUAUUGUTT against Mfn2	inactive: 0.19
GGUGAUCUGGACCAAGAUGTT against Lcp1	inactive: 1.25
GGUCAUUGGUUCCUCCCUUTT against 4932409I22Rik	inactive: -0.336
CGGAGUGUACCAUCUACACTT against Agpat4	inactive: -1.45
CCCUGACAGAUUAAUUUCATT against Zbed3	inactive: -1.61
GGCAUAGUUGCUGUUCUCUTT against Slc9a9	inactive: 0.354
